The assay is described as follows: qHTS Assay to Find Inhibitors of Chronic Active B-Cell Receptor Signaling. Particulars: ABC-DLBCL IkBa-CBG/CBR reporter, luminescence ratio (green luciferase fused to IkBa over red control in TMD8 lymphoma cells), 4 h. The method, boiled down: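 TMD8 human ABC-DLBCL cells with doxycycline-inducible IκBα–green luciferase fusion and unfused red luciferase, in 0.5% FBS medium; compounds up to 46 uM, 4 h at 37C. Green/red luminescence ratio, filter-overlap corrected, fitted to concentration-response curves.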
(In general: In qHTS, concentration-response curves come from the screen itself.)

Where [1] appears, read: measured here: CBR red luminescence, cell number.
Setting [2] is: measured here: IkBa-CBG green luminescence.

This is one part of the list. Shown are side measurements of this screen, not its main read-out; they come without a call. The list favours compounds with an active or inconclusive main result. Words in brackets tell the shape of the fitted curve; partial curves, single points and poor fits give uncertain potencies.

Among the data in PubChem BioAssay AID493014 (National Center for Advancing Translational Sciences (NCATS), 2011) are AC50 values, retold here.

Broadly, the AC50 is the concentration giving half of the maximal activity seen.

Turning to `Nc1nnc(SCn2nnc3ccccc3c2=O)s1`, the half-maximal activity concentration (AC50) under setting [1] is 17.8 µM [rising, single point]. Turning to `COc1ccc(NC(=O)c2oc3ccccc3c2CSC)cn1`, under setting [1], the AC50 was 7.08 µM [falling, partial curve, poor fit].

`NC(=O)c1cc2cc([N+](=O)[O-])ccc2oc1=O`: the AC50 under setting [1] is 31.6 µM [rising, single point]. Turning to `CCN(c1ccccc1)S(=O)(=O)c1ccc(C(=O)N2CC(C)CC(C)C2)cc1` (stereo not drawn), under setting [2], the AC50 was 25.9 µM [rising, partial curve, poor fit]. In the case of `CCOc1ccc(OCc2cccc(C(=O)N/N=C/c3cccnc3)c2)cc1`, the half-maximal activity concentration (AC50) under setting [1] was 0.116 µM [rising, full curve, poor fit].

As to `CCOc1ccc(C(=O)CCN2CCCCC2)cc1`, the half-maximal activity concentration (AC50) under setting [1] was 17.8 µM [falling, partial curve]. Regarding `COc1ccc(NS(=O)(=O)c2cc(NC(=O)c3cc(F)c(F)cc3Cl)ccc2N2CCOCC2)cc1`, under setting [1], the half-maximal activity concentration (AC50) was 23.1 µM [rising, single point]. As to `N#C/C(=C\c1ccncc1)c1nc2ccccc2c(=O)[nH]1`, under setting [1], the AC50 was 3.55 µM [falling, partial curve]. Regarding `O=C(N/N=C/c1cccnc1)c1cc2ccccc2cc1O`, under setting [1], the AC50 is 35.5 µM [falling, single point]. Same read-out and setting: next, `CCCCCn1c(N2CCC(C(N)=O)CC2)nc2c1c(=O)[nH]c(=O)n2C`: 0.501 µM [rising, full curve, poor fit]; `COc1ccc(-c2c[n+](CC(=O)OC3CC(C)CCC3C(C)C)c3n2CCC3)cc1` (stereo not drawn): 12.6 µM [falling, partial curve]. Still for that read-out and setting: next, `O=S(=O)(Nc1cc(Sc2cccc3cccnc23)c(O)c2ccccc12)c1ccccc1`: 29.1 µM [falling, single point]; `CCCOc1ccc(CCC(=O)O)cc1`: 6.31 µM [falling, single point]; `CC(C)(CNc1ccc(C(F)(F)F)cc1[N+](=O)[O-])N1CCOCC1`: 1.41 µM [rising, partial curve]. With `Cc1cc(C)c(S(=O)(=O)Nc2ccccc2-c2ccccc2)c(C)c1`, the AC50 under setting [2] was 16.4 µM [rising, partial curve, poor fit]. As to `CCOC(=O)C1=C(C)NC(C)=C(C(=O)OCC)C1C(=O)OCC(=O)N1CC(C)OC(C)C1` (stereo not drawn), the AC50 was 20.6 µM [rising, single point] under setting [1] and 20.6 µM [falling, partial curve, poor fit] under setting [2].

Turning to `CN(C)S(=O)(=O)c1ccc(Cl)c(NC(=O)COC(=O)/C=C/c2cnc3ccccc3n2)c1`, the AC50 under setting [1] was 35.5 µM [rising, single point].

In the case of `CN(C)/C=C/C(=O)c1ccc2noc(-c3ccccc3)c2c1`, under setting [1], the AC50 is 10 µM [falling, partial curve]. On to `Nc1cccc2c1C(=O)N(Cc1nnc(-c3ccccc3Br)o1)C2=O`, for which the AC50 under setting [1] is 1.41 µM [falling, full curve, poor fit]. Regarding `CCCOc1ccc(NC(=O)C2CCCNC2=O)cc1` (stereo not drawn), the half-maximal activity concentration (AC50) under setting [1] is 7.31 µM [falling, partial curve]. Same read-out and setting: next, `S=c1[nH]nc(COc2ccccc2)n1/N=C/c1ccccc1Cl`: 35.5 µM [rising, single point]. Consider `CC(=O)c1c(N2CCN(C)CC2)nc(=S)n(-c2cc(C)ccc2C)c1C`, for which the AC50 under setting [1] is 11.2 µM [rising, partial curve]. On to `COc1ccc(N2CCN(C(=O)c3cc(=O)c4cc(C)c(C)cc4o3)CC2)cc1`, for which, under setting [1], the AC50 is 3.98 µM [rising, full curve, poor fit]. As for `Cc1nn(Cc2ccccc2)c(C)c1NC(=O)CSc1nnc(-c2cc(Cl)ccc2O)n1C`, under setting [1], the AC50 was 0.461 µM [falling, full curve, poor fit]. On to `COc1ccc(-c2cc(C#N)nc(NN)n2)cc1`, for which the AC50 under setting [1] was 6.31 µM [falling, single point]. On the same count and under the same terms, next, `O=C(O)CC(NCc1ccco1)C(=O)OCC1CCCO1` (stereo not drawn): 35.5 µM [rising, single point]; `CCOc1ccc(NC(=O)CSC2=C(C#N)C(c3ccc4c(c3)OCO4)CC(=O)N2)cc1` (stereo not drawn): 7.31 µM [rising, partial curve, poor fit]. Turning to `Cc1ccccc1OCC(=O)NNC(=O)c1ccc2c(=O)n3c(nc2c1)CCC3`, the AC50 by setting is: under setting [1], 0.651 µM [falling, partial curve, poor fit]; under setting [2], 23.1 µM [rising, partial curve, poor fit]. As for `COc1cc(OC)cc(-c2sc3ccc(OC)cc3c2-c2ccc3cc[nH]c3c2)c1`, the AC50 under setting [1] was 29.1 µM [rising, single point]. As to `CCOC(=O)C1=C(C)NC(C)=C(C(=O)OCC)C1C`, under setting [1], the AC50 was 18.4 µM [rising, partial curve, poor fit].

In the case of `Cc1cccnc1NC(=O)c1ccc2c(c1)NC(=O)C(C)S2` (stereo not drawn), the AC50 under setting [1] was 5.8 µM [falling, partial curve].

Regarding `S=C(Nc1ccc(Cl)c(Cl)c1)NC1CCN(Cc2ccccc2)CC1`, the AC50 under setting [1] was 6.51 µM [falling, partial curve, poor fit]. Regarding `COc1cccc(N2CCN(c3ncnc4c3[nH]c3ccccc34)CC2C)c1` (stereo not drawn), the AC50 runs as follows: under setting [1], 13 µM [falling, partial curve]; under setting [2], 20.6 µM [rising, single point].

Regarding `O=C1CCCN1c1ccc(S(=O)(=O)Oc2ccc(Cl)cc2)cc1[N+](=O)[O-]`, the AC50 under setting [1] was 25.1 µM [falling, single point]. Turning to `O=C(O)c1csc(N/N=C/c2ccc(Br)cc2)n1`, under setting [1], the AC50 is 22.4 µM [falling, single point].

For the molecule `COc1cc2nc(CN3CCN(S(=O)(=O)c4c(F)cccc4F)CC3)[nH]c(=O)c2cc1OC`, under setting [1], the AC50 was 14.6 µM [rising, partial curve, poor fit].

Regarding `NC(N)=N/N=C/c1ccc(Cl)cc1Cl`, the concentration at half-maximal activity (AC50) under setting [1] is 11.2 µM [falling, partial curve, poor fit]. Turning to `Oc1ccc(/C=N/NC2=NCCCCC2)c(O)c1`, under setting [1], the AC50 was 14.6 µM [falling, single point]. `O=C(NNC(=O)c1cc2cc(OC(F)(F)F)ccc2[nH]1)c1ccc(Cl)cc1`: under setting [1], the AC50 is 2.51 µM [rising, full curve]. In the case of `CC(C)OC(=O)/C(=C/c1ccc(Br)cc1)NC(=O)c1ccco1`, the AC50 under setting [1] was 32.6 µM [rising, partial curve, poor fit].
